Our source for the binding values is paper PMC5841295.

Amino acid sequences for entries named in this document (tags omitted).
UniProt Q07812: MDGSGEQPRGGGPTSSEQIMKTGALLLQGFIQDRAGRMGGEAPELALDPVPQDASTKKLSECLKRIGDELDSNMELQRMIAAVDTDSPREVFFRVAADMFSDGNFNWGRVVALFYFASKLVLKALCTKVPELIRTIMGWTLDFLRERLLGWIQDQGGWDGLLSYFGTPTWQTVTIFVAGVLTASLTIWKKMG

Results are given in words; binding and its absence hold for the method and conditions named. For part of these data: In cells and extracts the contact can be indirect. Some binding calls cover weakened binding; strength is not graded here. Where a sequence is shown, tags or fusion partners need not be part of it.

One assay addresses T1, HaloTag-Bid (UniProt P55957).
T1 sequence: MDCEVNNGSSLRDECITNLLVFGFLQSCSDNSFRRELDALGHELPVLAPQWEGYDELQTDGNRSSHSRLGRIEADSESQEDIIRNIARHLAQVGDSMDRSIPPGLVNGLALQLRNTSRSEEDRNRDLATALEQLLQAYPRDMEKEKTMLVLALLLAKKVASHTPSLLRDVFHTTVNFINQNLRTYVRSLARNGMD
The assay is described as follows: pull-down; HaloTag constructs transfected into PLEK-KO + EGFP-PLEK cells; 0.5 mg/mL lysate on Magne-HaloTag beads, 1 h at room temperature, HaloTag purification buffer (50 mM Hepes, 1 mM DTT, 1 mM EDTA, 1 mM EGTA, 0.05% NP-40); blot with GFP antibody.

A further assay deals with HaloTag-Bax (UniProt Q07812). Described as above.
A further assay has as its target T2, MBP-Bid-HA (UniProt P55957).
T2 sequence: T1 sequence
The assay is described as follows: pull-down; recombinant GST-Bax and MBP-Bid-HA applied to Glutathione sepharose 4B beads, washed with OG buffer (10 mM TrisHCl pH 7.4, 150 mM NaCl, 0.1% octyl glycoside); first elution with purified PLEKHN1 (and Bax) or control buffer, second elution with 30 mM reduced glutathione; both purified.

B1: enhanced green fluorescent protein (EGFP)-fused PLEKHN1 (protein, UniProt Q494U1-1 1-611)
chain: MGNSHCVPQAPRRLRASFSRKPSLKGNREDSARMSAGLPGPEAARSGDAAANKLFHYIPGTDILDLENQRENLEQPFLSVFKKGRRRVPVRNLGKVVHYAKVQLRFQHSQDVSDCYLELFPAHLYFQAHGSEGLTFQGLLPLTELSVCPLEGSREHAFQITGPLPAPLLVLCPSRAELDRWLYHLEKQTALLGGPRRCHSAPPQRRLTRLRTASGHEPGGSAVCASRVKLQHLPAQEQWDRLLVLYPTSLAIFSEELDGLCFKGELPLRAVHINLEEKEKQIRSFLIEGPLINTIRVVCASYEDYGHWLLCLRAVTHREGAPPLPGAESFPGSQVMGSGRGSLSSGGQTSWDSGCLAPPSTRTSHSLPESSVPSTVGCSSQHTPDQANSDRASIGRRRTELRRSGSSRSPGSKARAEGRGPVTPLHLDLTQLHRLSLESSPDAPDHTSETSHSPLYADPYTPPATSHRRVTDVRGLEEFLSAMQSARGPTPSSPLPSVPVSVPASDPRSCSSGPAGPYLLSKKGALQSRAAQRHRGSAKDGGPQPPDAPQLVSSAREGSPEPWLPLTDGRSPRRSRDPGYDHLWDETLSSSHQKCPQLGGPEASGGLVQWI
As to B1, the binding entry is listed as “binds” with HaloTag-Bid and “no binding” with HaloTag-Bax.

B2: purified PLEKHN1 protein (protein, UniProt Q494U1-1 1-611)
chain: B1 chain
Regarding B2, in the assay with MBP-Bid-HA, the binding result was “binds”.
